Data as given in PubChem BioAssay AID602196 (INSERM, 2012).
Here is a random part of about 23,000 deposited reagents. In the full data, 455 (2%) were called active. 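Active includes both protection and sensitisation; some change values fall well beyond the stated -50 to +50 range.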 A number with no mark means an inactive call. Not all columns of the deposit are shown. The record does not give: the amount of reagent.

Purpose: 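Knock-downs that protect lung cancer cells from cisplatin or sensitise them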
System: human A549 lung cancer cells
Reagent: siRNA pair against human genes
Duration: 48 h transfection before cisplatin; time from cisplatin to read-out not stated
Treatment: cisplatin at a dose killing half of control-siRNA cells; exact dose and duration not given
Read-out: 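Cisplatin cell death as a shift from the 50% death seen with control siRNA; siRNAs toxic or growth-blocking alone scored 0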
Direction: two-siRNA summed score (-2 to +2): higher = both siRNAs protect from cisplatin killing; -2 means both sensitise; mean protection from cisplatin (shift in death) and protection from cisplatin (shift in death), siRNA C: higher = protection from cisplatin killing
Hit rule: 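siRNAs harmful alone (LDH or WST-1) get 0; others get +1 for less and -1 for more cisplatin killing; genes are active when the two siRNAs give the same sign, summing to ±2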
Calls: active = both siRNAs shift cisplatin killing the same way; inactive = no consistent shift, or siRNA harmful alone

| target | two-siRNA summed score (-2 to +2) | mean protection from cisplatin (shift in death) (%) | protection from cisplatin (shift in death), siRNA C (%) |
| --- | --- | --- | --- |
| ALOX5 (arachidonate 5-lipoxygenase) | 0 | 5.1 | -0.4 |
| LOC402412 | 0 | 4.5 | 6.2 |
| LMNTD2 (lamin tail domain containing 2) | -1 | 9 | 29.3 |
| LOC442368 | 1 | 21.4 | 26.6 |
| LOC439981 | 1 | 11.4 | 19 |
| ZFP36L1 (ZFP36 like 1 zinc finger CCCH-type) | 1 | 17.9 | -2.6 |
| THAP8 (THAP domain containing 8) | 0 | -0.1 | 4 |
| DNMT1 (DNA methyltransferase 1) | 0 | 8 | 6.8 |
| SAR1A (secretion associated Ras related GTPase 1A) | 0 | 8.1 | 1.9 |
| LOC441004 | 0 | 8.9 | 4.7 |
| ISOC2 (isochorismatase domain containing 2) | 0 | -2.5 | 2.7 |
| APOF (apolipoprotein F) | -1 | -5.6 | 8.3 |
| TRAPPC5 (trafficking protein particle complex subunit 5) | 0 | 4 | 16.5 |
| GPR143 (G protein-coupled receptor 143) | 0 | -9.3 | -9.4 |
| LINC00898 (long independently transcribed non-coding RNA 898) | 1 | 27.5 | 15.2 |
| TNFRSF10A (TNF receptor superfamily member 10a) | 0 | 6.6 | 7.5 |
| DHX30 (DExH-box helicase 30) | -1 | -1.1 | -20.3 |
| LOC439919 | 0 | 14.4 | 19.1 |
| LOC442521 | 0 | 2.4 | -2.5 |
| ZNF668 (zinc finger protein 668) | 0 | 6 | -1.1 |
| OR5T1 (olfactory receptor family 5 subfamily T member 1) | 0 | 2.2 | 4.9 |
| CYBB (cytochrome b-245 beta chain) | -1 | 2.1 | 16.8 |
| ATP2A1 | 0 | 6 | 11 |
| UGT8 (UDP glycosyltransferase 8) | 0 | 7.7 | 11.9 |
| OVOS2P (ovostatin 2, pseudogene) | 0 | 9.1 | 8.1 |
| LOC283299 | 0 | 17.2 | 22.6 |
| ZNF777 (zinc finger protein 777) | 0 | 15.6 | 11.5 |
| KRR1 (KRR1 small subunit processome component) | 0 | 14.9 | 31.4 |
| ABCA8 (ATP binding cassette subfamily A member 8) | -1 | -27.6 | -45.9 |
| FBXO3 (F-box protein 3) | 0 | -0.7 | -13.8 |

A few values from the list:
Under “two-siRNA summed score (-2 to +2)”, ZNF668 (zinc finger protein 668) is entered as 0
Under “two-siRNA summed score (-2 to +2)”, OVOS2P (ovostatin 2, pseudogene) shows 0
Result of KRR1 (KRR1 small subunit processome component) under “two-siRNA summed score (-2 to +2)”: 0
ISOC2 (isochorismatase domain containing 2), mean protection from cisplatin (shift in death) (%): -2.5
Value of TNFRSF10A (TNF receptor superfamily member 10a) in “protection from cisplatin (shift in death), siRNA C (%)”: 7.5
Value for LOC442521 under “mean protection from cisplatin (shift in death) (%)”: 2.4

More entries follow:
| target | two-siRNA summed score (-2 to +2) | mean protection from cisplatin (shift in death) (%) | protection from cisplatin (shift in death), siRNA C (%) |
| --- | --- | --- | --- |
| LOC402521 | 0 | 19.5 | 17.8 |
| MMRN2 (multimerin 2) | 1 | 11.6 | 24.7 |
| TNFSF11 (TNF superfamily member 11) | 0 | 8.4 | 16.5 |
| SPACA7 (sperm acrosome associated 7) | 0 | 8.5 | 8.2 |
| LPL (lipoprotein lipase) | -1 | -16.6 | 9.8 |
| CFAP100 (cilia and flagella associated protein 100) | 0 | -3.7 | 2.9 |
| IL9 (interleukin 9) | 0 | -4.7 | 0.7 |
| LOC442621 | 1 | 7.2 | -3.9 |
| OTOG (otogelin) | 0 | 7.4 | -5.8 |
| LOC440180 (zinc finger CCHC-type containing 7 pseudogene) | 0 | 21.1 | 28 |
| CYP26B1 (cytochrome P450 family 26 subfamily B member 1) | 0 | -12.5 | -5.7 |
| TM4SF1 (transmembrane 4 L six family member 1) | 0 | -2.4 | 4.8 |
| NECAB2 (N-terminal EF-hand calcium binding protein 2) | 0 | -0.7 | -3.6 |
| CNGA2 (cyclic nucleotide gated channel subunit alpha 2) | -1 | -1.3 | -12.7 |
| PMCHL2 (pro-melanin concentrating hormone like 2 (pseudogene)) | 0 | 2.7 | 1.4 |
| CD163 (CD163 molecule) | 0 | 9.1 | 3.4 |
| PRELID1P5 (PRELID1 pseudogene 5) | 0 | 5.3 | 2.7 |
| NR1D2 (nuclear receptor subfamily 1 group D member 2) | 0 | -0.4 | -6.4 |
| GRK3 (G protein-coupled receptor kinase 3) | 0 | 15.3 | 0.4 |
| OXSR1 (oxidative stress responsive kinase 1) | 0 | 6.2 | 0.9 |
| CRAMP1 (cramped chromatin regulator 1) | 0 | -18.6 | -15.3 |
| LRIF1 (ligand dependent nuclear receptor interacting factor 1) | 0 | 19.3 | 12 |
| SRXN1 (sulfiredoxin 1) | 0 | 1.3 | 4.9 |
| ARL1 (ARF like GTPase 1) | 0 | 1.8 | -1.6 |
| HACL1 (2-hydroxyacyl-CoA lyase 1) | 0 | -2.8 | 4.9 |
| NOP14 (NOP14 nucleolar protein) | 0 | 5.3 | 4.8 |
| GAR1 (GAR1 ribonucleoprotein) | 1 | 20.5 | 20.3 |
